Results: paper PMC5386304
No constants are given. Whether binding was seen depends on the method and setting. In cells and extracts the contact can be indirect. A result given as binding can be weak or reduced; the word gives no strength. Sequences can lack the tags named with a protein.

The chains behind the UniProt entries cited, without tags or fusion partners. Where a name states a change or a piece, a line headed by the entry shows the natural chain unless it says otherwise.
UniProt A0A2R8VJU7: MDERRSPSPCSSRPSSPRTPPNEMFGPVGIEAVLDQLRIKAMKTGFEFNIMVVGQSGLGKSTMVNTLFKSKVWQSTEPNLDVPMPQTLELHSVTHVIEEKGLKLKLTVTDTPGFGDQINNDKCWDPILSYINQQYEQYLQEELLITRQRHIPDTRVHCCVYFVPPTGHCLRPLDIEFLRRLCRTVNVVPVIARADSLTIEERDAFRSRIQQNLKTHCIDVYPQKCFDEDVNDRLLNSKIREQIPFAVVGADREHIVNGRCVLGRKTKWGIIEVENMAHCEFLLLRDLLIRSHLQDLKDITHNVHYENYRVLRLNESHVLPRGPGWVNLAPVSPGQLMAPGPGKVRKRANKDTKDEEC

What was measured:
GFP-SEPT12WT (human) = biological target: T1, GFP-SEPT12WT (human) (UniProt Q8IYM1); test: co-IP; NT2/D1 cells co-transfected with HA-SEPT4, Myc-SEPT6, FLAG-SEPT7 and a GFP-SEPT12 plasmid; lysates immunoprecipitated with anti-GFP; blots with anti-HA, anti-Myc, anti-FLAG, anti-GFP
T1 sequence: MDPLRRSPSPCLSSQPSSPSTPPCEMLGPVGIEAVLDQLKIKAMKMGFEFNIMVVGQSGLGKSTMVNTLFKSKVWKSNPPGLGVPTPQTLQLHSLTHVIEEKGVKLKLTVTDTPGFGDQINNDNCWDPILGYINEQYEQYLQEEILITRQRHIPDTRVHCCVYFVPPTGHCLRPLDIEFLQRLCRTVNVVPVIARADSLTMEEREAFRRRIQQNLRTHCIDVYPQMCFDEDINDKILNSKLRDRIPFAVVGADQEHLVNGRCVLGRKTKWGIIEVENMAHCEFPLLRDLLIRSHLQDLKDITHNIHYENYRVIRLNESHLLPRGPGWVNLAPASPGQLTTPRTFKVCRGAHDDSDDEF

[1] = biological target: T2, His-tagged SEPT7 recombinant protein (UniProt Q16181); test: pull-down; 5 μg His-SEPT7 on 30 μl Ni-NTA beads, 5 mM imidazole, incubated with testicular lysate of WT or SEPT12^S196E/S196E mice overnight at 4°C; washed three times; blots for SEPT12, SEPT2, SEPT6 and His; only the target purified
T2 sequence: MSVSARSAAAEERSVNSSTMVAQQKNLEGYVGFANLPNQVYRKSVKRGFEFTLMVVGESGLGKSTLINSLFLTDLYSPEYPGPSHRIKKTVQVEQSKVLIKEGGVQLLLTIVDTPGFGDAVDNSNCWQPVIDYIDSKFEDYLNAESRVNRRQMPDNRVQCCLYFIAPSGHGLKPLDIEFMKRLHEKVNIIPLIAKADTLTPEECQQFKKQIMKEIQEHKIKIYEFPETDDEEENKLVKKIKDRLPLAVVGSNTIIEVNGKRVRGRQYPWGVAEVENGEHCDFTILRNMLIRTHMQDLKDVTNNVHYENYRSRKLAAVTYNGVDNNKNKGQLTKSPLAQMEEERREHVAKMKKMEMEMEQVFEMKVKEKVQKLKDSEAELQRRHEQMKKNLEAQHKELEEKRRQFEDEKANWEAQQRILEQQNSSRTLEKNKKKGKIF

binding (GFP-SEPT12WT (human))	binding [1]	Substance
binds		HA-SEPT4 (from UniProt O43236-1)
	binds	SEPT12 (endogenous, wild-type mouse testis) (from UniProt A0A2R8VJU7)
	no binding	SEPT12 S196E (phosphomimetic SEPT12 of knock-in mouse testis) (from UniProt A0A2R8VJU7-2)
